Here are results for 1 compound from US5401725A, “Neovascularization inhibition by adenosine-5'-phosphosulfates” (Unitika Ltd., priority 1990, dated 1995).

The nature of this series: toxicity in rats, parenteral administration. In kind it is in vivo, rat. Conditions: 500 to 3,500 mg/kg in 50% dimethylsulfoxide, I.V. or I.P.

As for `Nc1ncnc2c1ncn2[C@@H]1O[C@H](COP(=O)(O)OS(=O)(=O)O)[C@@H](O)[C@H]1O` [APS, adenosine 5'-phosphosulfate], the intoxication or lethality result is recorded as “no cases of intoxication or lethality”.
